Laboratory results taken from US12729225B2, “Non-canonical SWI/SNF complex and uses thereof” (Dana-Farber Cancer Institute, Inc., priority 2018, dated 2026).

B1: ACADM (protein, UniProt P11310 26-421, looked up)
Medium-chain specific …: KANRQREPGLGFSFEFTEQQKEFQATARKFAREEIIPVAAEYDKTGEYPVPLIRRAWELGLMNTHIPENCGGLGLGTFDACLISEELAYGCTGVQTAIEGNSLGQMPIIIAGNDQQKKKYLGRMTEEPLMCAYCVTEPGAGSDVAGIKTKAEKKGDEYIINGQKMWITNGGKANWYFLLARSDPDPKAPANKAFTGFIVEADTPGIQIGRKELNMGQRCSDTRGIVFEDVKVPKENVLIGDGAGFKVAMGAFDKTRPVVAAGAVGLAQRALDEATKYALERKTFGKLLVEHQAISFMLAEMAMKVELARMSYQRAAWEVDSGRRNTYYASIAKAFAGDIANQLATDAVQILGGNGFNTEYPVEKLMRDAKIYQIYEGTSQIQRLIVAREHIDKYKN
B2: DNAJB11 (protein, UniProt Q9UBS4 23-358, looked up)
DnaJ homolog subfamily B …: GRDFYKILGVPRSASIKDIKKAYRKLALQLHPDRNPDDPQAQEKFQDLGAAYEVLSDSEKRKQYDTYGEEGLKDGHQSSHGDIFSHFFGDFGFMFGGTPRQQDRNIPRGSDIIVDLEVTLEEVYAGNFVEVVRNKPVARQAPGKRKCNCRQEMRTTQLGPGRFQMTQEVVCDECPNVKLVNEERTLEVEIEPGVRDGMEYPFIGEGEPHVDGEPGDLRFRIKVVKHPIFERRGDDLYTNVTISLVESLVGFEMDITHLDGHKVHISRDKITRPGAKLWKKGEGLPNFDNNNIKGSLIITFDVDFPKEQLTEEAREGIKQLLKQGSVQKVYNGLQGY
B3: CSN1S1 (protein, UniProt P47710 16-185, looked up)
Alpha-S1-casein: RPKLPLRYPERLQNPSESSEPIPLESREEYMNGMNRQRNILREKQTDEIKDTRNESTQNCVVAEPEKMESSISSSSEEMSLSKCAEQFCRLNEYNQLQLQAAHAQEQIRRMNENSHVQVPFQQLNQLAAYPYAVWYYPQIMQYVPFPPFSDISNPTAHENYEKNNVMLQW
B4: ARCN1 (protein, UniProt P48444 2-511, looked up)
Coatomer subunit delta: VLLAAAVCTKAGKAIVSRQFVEMTRTRIEGLLAAFPKLMNTGKQHTFVETESVRYVYQPMEKLYMVLITTKNSNILEDLETLRLFSRVIPEYCRALEENEISEHCFDLIFAFDEIVALGYRENVNLAQIRTFTEMDSHEEKVFRAVRETQEREAKAEMRRKAKELQQARRDAERQGKKAPGFGGFGSSAVSGGSTAAMITETIIETDKPKVAPAPARPSGPSKALKLGAKGKEVDNFVDKLKSEGETIMSSSMGKRTSEATKMHAPPINMESVHMKIEEKITLTCGRDGGLQNMELHGMIMLRISDDKYGRIRLHVENEDKKGVQLQTHPNVDKKLFTAESLIGLKNPEKSFPVNSDVGVLKWRLQTTEESFIPLTINCWPSESGNGCDVNIEYELQEDNLELNDVVITIPLPSGVGAPVIGEIDGEYRHDSRRNTLEWCLPVIDAKNKSGSLEFSIAGQPNDFFPVQVSFVSKKNYCNIQVTKVTQVDGNSPVRFSTETTFLVDKYEIL
B5: PABPN1 (protein, UniProt Q86U42 2-306, looked up)
Polyadenylate-binding protein …: AAAAAAAAAAGAAGGRGSGPGRRRHLVPGAGGEAGEGAPGGAGDYGNGLESEELEPEELLLEPEPEPEPEEEPPRPRAPPGAPGPGPGSGAPGSQEEEEEPGLVEGDPGDGAIEDPELEAIKARVREMEEEAEKLKELQNEVEKQMNMSPPPGNAGPVIMSIEEKMEADARSIYVGNVDYGATAEELEAHFHGCGSVNRVTILCDKFSGHPKGFAYIEFSDKESVRTSLALDESLFRGRQIKVIPKRTNRPGISTTDRGFPRARYRARTTNYNSSRSRFYSGFNSRPRGRVYRGRARATSWYSPY
B6: HMGB2 (protein, UniProt P26583 1-209, looked up)
High mobility group protein B2: MGKGDPNKPRGKMSSYAFFVQTCREEHKKKHPDSSVNFAEFSKKCSERWKTMSAKEKSKFEDMAKSDKARYDREMKNYVPPKGDKKGKKKDPNAPKRPPSAFFLFCSEHRPKIKSEHPGLSIGDTAKKLGEMWSEQSAKDKQPYEQKAAKLKEKYEKDIAAYRAKGKSEAGKKGPGRPTGSKKKNEPEDEEEEEEEEDEDEEEEDEDEE
B7: SRP68 (protein, UniProt Q9UHB9 1-627, looked up)
Signal recognition particle …: MAAEKQVPGGGGGGGSGGGGGSGGGGSGGGRGAGGEENKENERPSAGSKANKEFGDSLSLEILQIIKESQQQHGLRHGDFQRYRGYCSRRQRRLRKTLNFKMGNRHKFTGKKVTEELLTDNRYLLLVLMDAERAWSYAMQLKQEANTEPRKRFHLLSRLRKAVKHAEELERLCESNRVDAKTKLEAQAYTAYLSGMLRFEHQEWKAAIEAFNKCKTIYEKLASAFTEEQAVLYNQRVEEISPNIRYCAYNIGDQSAINELMQMRLRSGGTEGLLAEKLEALITQTRAKQAATMSEVEWRGRTVPVKIDKVRIFLLGLADNEAAIVQAESEETKERLFESMLSECRDAIQVVREELKPDQKQRDYILEGEPGKVSNLQYLHSYLTYIKLSTAIKRNENMAKGLQRALLQQQPEDDSKRSPRPQDLIRLYDIILQNLVELLQLPGLEEDKAFQKEIGLKTLVFKAYRCFFIAQSYVLVKKWSEALVLYDRVLKYANEVNSDAGAFKNSLKDLPDVQELITQVRSEKCSLQAAAILDANDAHQTETSSSQVKDNKPLVERFETFCLDPSLVTKQANLVHFPPGFQPIPCKPLFFDLALNHVAFPPLEDKLEQKTKSGLTGYIKGIFGFRS
B8: NUP155 (protein, UniProt O75694 2-1391, looked up)
Nuclear pore complex protein …: PSSLLGAAMPASTSAAALQEALENAGRLIDRQLQEDRMYPDLSELLMVSAPNNPTVSGMSDMDYPLQGPGLLSVPNLPEISSIRRVPLPPELVEQFGHMQCNCMMGVFPPISRAWLTIDSDIFMWNYEDGGDLAYFDGLSETILAVGLVKPKAGIFQPHVRHLLVLATPVDIVILGLSYANLQTGSGVLNDSLSGGMQLLPDPLYSLPTDNTYLLTITSTDNGRIFLAGKDGCLYEVAYQAEAGWFSQRCRKINHSKSSLSFLVPSLLQFTFSEDDPILQIAIDNSRNILYTRSEKGVIQVYDLGQDGQGMSRVASVSQNAIVSAAGNIARTIDRSVFKPIVQIAVIENSESLDCQLLAVTHAGVRLYFSTCPFRQPLARPNTLTLVHVRLPPGFSASSTVEKPSKVHRALYSKGILLMAASENEDNDILWCVNHDTFPFQKPMMETQMTAGVDGHSWALSAIDELKVDKIITPLNKDHIPITDSPVVVQQHMLPPKKFVLLSAQGSLMFHKLRPVDQLRHLLVSNVGGDGEEIERFFKLHQEDQACATCLILACSTAACDREVSAWATRAFFRYGGEAQMRFPTTLPPPSNVGPILGSPVYSSSPVPSGSPYPNPSFLGTPSHGIQPPAMSTPVCALGNPATQATNMSCVTGPEIVYSGKHNGICIYFSRIMGNIWDASLVVERIFKSGNREITAIESSVPCQLLESVLQELKGLQEFLDRNSQFAGGPLGNPNTTAKVQQRLIGFMRPENGNPQQMQQELQRKFHEAQLSEKISLQAIQQLVRKSYQALALWKLLCEHQFTIIVAELQKELQEQLKITTFKDLVIRDKELTGALIASLINCYIRDNAAVDGISLHLQDICPLLYSTDDAICSKANELLQRSRQVQNKTEKERMLRESLKEYQKISNQVDLSNVCAQYRQVRFYEGVVELSLTAAEKKDPQGLGLHFYKHGEPEEDIVGLQAFQERLNSYKCITDTLQELVNQSKAAPQSPSVPKKPGPPVLSSDPNMLSNEEAGHHFEQMLKLSQRSKDELFSIALYNWLIQVDLADKLLQVASPFLEPHLVRMAKVDQNRVRYMDLLWRYYEKNRSFSNAARVLSRLADMHSTEISLQQRLEYIARAILSAKSSTAISSIAADGEFLHELEEKMEVARIQLQIQETLQRQYSHHSSVQDAVSQLDSELMDITKLYGEFADPFKLAECKLAIIHCAGYSDPILVQTLWQDIIEKELSDSVTLSSSDRMHALSLKIVLLGKIYAGTPRFFPLDFIVQFLEQQVCTLNWDVGFVIQTMNEIGVPLPRLLEVYDQLFKSRDPFWNRMKKPLHLLDCIHVLLIRYVENPSQVLNCERRRFTNLCLDAVCGYLVELQSMSSSVAVQAITGNFKSLQAKLERLH
B9: MTHFD1L (protein, UniProt Q6UB35 32-978, looked up)
Monofunctional …: SSGGGGGGGGGREGLLGQRRPQDGQARSSCSPGGRTPAARDSIVREVIQNSKEVLSLLQEKNPAFKPVLAIIQAGDDNLMQEINQNLAEEAGLNITHICLPPDSSEAEIIDEILKINEDTRVHGLALQISENLFSNKVLNALKPEKDVDGVTDINLGKLVRGDAHECFVSPVAKAVIELLEKSGVNLDGKKILVVGAHGSLEAALQCLFQRKGSMTMSIQWKTRQLQSKLHEADIVVLGSPKPEEIPLTWIQPGTTVLNCSHDFLSGKVGCGSPRIHFGGLIEEDDVILLAAALRIQNMVSSGRRWLREQQHRRWRLHCLKLQPLSPVPSDIEISRGQTPKAVDVLAKEIGLLADEIEIYGKSKAKVRLSVLERLKDQADGKYVLVAGITPTPLGEGKSTVTIGLVQALTAHLNVNSFACLRQPSQGPTFGVKGGAAGGGYAQVIPMEEFNLHLTGDIHAITAANNLLAAAIDTRILHENTQTDKALYNRLVPLVNGVREFSEIQLARLKKLGINKTDPSTLTEEEVSKFARLDIDPSTITWQRVLDTNDRFLRKITIGQGNTEKGHYRQAQFDIAVASEIMAVLALTDSLADMKARLGRMVVASDKSGQPVTADDLGVTGALTVLMKDAIKPNLMQTLEGTPVFVHAGPFANIAHGNSSVLADKIALKLVGEEGFVVTEAGFGADIGMEKFFNIKCRASGLVPNVVVLVATVRALKMHGGGPSVTAGVPLKKEYTEENIQLVADGCCNLQKQIQITQLFGVPVVVALNVFKTDTRAEIDLVCELAKRAGAFDAVPCYHWSVGGKGSVDLARAVREAASKRSRFQFLYDVQVPIVDKIRTIAQAVYGAKDIELSPEAQAKIDRYTQQGFGNLPICMAKTHLSLSHQPDKKGVPRDFILPISDVRASIGAGFIYPLVGTMSTMPGLPTRPCFYDIDLDTETEQVKGLF

Tested on: mSWI/SNF complexes
Assay: mSWI/SNF complex purification with HA-tagged baits and mass spectrometry (peptide counts)
Set-up: species or system human
[1] = 293_HA-BRD7 bait purification, mass spectrometry, total peptide count per identified protein
[2] = 293_HA-BRD7 bait purification, mass spectrometry, unique peptide count per identified protein

Row | Molecule | Total (293_HA-BRD7: HA-BRD7 bait purification, total peptide count per co-purified protein) | Unique (293_HA-BRD7: HA-BRD7 bait purification, unique peptide count per co-purified protein) | Total [1] | Unique [2]
1 | B1 | 13 | 13 |  | 
2 | B2 |  |  | 1 | 1
3 | B3 |  |  | 1 | 1
4 | B4 |  |  | 1 | 1
5 | B5 |  |  | 1 | 1
6 | B6 |  |  | 1 | 1
7 | B7 |  |  | 1 | 1
8 | B8 |  |  | 1 | 1
9 | B9 |  |  | 1 | 1
